Article PMC7848174
These are yes or no findings as the source states them, for the method shown. In cells and extracts the contact can be indirect. A yes stands for co-enrichment or nearness to the bait. Other partners may have been found.

Amino acid sequences for entries named in this document (tags omitted). Residues count along the entry.
UniProt O77310, residues 25-1417: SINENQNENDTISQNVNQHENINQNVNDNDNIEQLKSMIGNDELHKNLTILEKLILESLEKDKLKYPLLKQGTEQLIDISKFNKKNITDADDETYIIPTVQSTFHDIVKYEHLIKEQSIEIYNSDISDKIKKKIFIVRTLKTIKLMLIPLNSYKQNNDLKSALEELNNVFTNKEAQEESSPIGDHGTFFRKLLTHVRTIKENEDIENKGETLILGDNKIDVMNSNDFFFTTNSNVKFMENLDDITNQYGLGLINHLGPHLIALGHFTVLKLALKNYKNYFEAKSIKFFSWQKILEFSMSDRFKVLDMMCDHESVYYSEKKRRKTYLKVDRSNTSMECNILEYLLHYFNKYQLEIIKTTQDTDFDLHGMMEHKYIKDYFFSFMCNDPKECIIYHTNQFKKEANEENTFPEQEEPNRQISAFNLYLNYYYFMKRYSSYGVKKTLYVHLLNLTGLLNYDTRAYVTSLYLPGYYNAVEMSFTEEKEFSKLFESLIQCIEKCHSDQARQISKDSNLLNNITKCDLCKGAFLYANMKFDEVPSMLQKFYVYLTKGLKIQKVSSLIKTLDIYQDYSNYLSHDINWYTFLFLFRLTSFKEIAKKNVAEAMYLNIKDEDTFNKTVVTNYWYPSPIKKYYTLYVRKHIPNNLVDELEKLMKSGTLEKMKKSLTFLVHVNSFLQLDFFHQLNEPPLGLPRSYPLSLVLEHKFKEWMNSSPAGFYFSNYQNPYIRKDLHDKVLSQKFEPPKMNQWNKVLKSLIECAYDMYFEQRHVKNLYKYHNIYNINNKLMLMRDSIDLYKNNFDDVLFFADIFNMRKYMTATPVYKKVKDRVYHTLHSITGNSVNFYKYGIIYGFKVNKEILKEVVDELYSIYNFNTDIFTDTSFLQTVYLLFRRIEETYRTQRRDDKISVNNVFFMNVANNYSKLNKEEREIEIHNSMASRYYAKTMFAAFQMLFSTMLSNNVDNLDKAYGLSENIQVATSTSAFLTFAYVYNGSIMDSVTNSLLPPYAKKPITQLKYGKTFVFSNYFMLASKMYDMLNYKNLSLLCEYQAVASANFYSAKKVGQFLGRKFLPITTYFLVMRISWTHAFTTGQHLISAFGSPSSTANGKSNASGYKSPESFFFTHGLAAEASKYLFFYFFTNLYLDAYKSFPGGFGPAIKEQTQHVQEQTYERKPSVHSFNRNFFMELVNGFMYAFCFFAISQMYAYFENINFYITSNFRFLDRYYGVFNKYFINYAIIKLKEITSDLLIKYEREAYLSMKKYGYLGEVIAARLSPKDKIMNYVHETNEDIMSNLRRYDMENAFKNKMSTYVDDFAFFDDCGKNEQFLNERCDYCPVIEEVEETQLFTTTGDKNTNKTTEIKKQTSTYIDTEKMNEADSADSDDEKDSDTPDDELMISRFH

T1: high-molecular mass rhoptry protein 3 (PfRhopH3) (P. falciparum (endogenous in NF54 schizonts)) (UniProt Q8I395)
T1 sequence: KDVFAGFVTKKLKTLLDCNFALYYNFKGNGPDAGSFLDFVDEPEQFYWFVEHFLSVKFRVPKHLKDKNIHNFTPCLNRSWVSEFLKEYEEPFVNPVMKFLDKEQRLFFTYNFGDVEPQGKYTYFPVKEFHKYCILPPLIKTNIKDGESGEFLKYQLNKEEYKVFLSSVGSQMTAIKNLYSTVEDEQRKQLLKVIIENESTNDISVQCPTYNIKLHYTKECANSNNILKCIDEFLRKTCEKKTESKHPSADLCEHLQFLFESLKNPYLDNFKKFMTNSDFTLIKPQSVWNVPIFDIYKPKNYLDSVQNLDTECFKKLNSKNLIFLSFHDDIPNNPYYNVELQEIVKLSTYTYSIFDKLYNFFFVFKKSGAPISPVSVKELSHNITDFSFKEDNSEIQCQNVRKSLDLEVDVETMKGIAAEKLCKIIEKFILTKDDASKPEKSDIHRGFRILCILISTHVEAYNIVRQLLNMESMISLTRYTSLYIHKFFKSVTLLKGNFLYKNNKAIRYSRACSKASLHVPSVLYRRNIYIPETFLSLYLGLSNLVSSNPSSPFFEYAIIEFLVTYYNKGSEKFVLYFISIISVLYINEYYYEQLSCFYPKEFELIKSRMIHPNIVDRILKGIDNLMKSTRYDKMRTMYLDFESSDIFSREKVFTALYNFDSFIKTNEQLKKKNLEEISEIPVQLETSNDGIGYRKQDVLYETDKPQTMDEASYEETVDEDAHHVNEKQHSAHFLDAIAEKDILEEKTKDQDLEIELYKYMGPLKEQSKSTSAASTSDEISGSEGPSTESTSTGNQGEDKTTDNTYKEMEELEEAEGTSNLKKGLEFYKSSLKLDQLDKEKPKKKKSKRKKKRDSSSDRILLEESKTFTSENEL

T2: high-molecular mass rhoptry protein 2 (PfRhopH2) (P. falciparum (endogenous in NF54 schizonts)) (UniProt C0H571)
T2 sequence: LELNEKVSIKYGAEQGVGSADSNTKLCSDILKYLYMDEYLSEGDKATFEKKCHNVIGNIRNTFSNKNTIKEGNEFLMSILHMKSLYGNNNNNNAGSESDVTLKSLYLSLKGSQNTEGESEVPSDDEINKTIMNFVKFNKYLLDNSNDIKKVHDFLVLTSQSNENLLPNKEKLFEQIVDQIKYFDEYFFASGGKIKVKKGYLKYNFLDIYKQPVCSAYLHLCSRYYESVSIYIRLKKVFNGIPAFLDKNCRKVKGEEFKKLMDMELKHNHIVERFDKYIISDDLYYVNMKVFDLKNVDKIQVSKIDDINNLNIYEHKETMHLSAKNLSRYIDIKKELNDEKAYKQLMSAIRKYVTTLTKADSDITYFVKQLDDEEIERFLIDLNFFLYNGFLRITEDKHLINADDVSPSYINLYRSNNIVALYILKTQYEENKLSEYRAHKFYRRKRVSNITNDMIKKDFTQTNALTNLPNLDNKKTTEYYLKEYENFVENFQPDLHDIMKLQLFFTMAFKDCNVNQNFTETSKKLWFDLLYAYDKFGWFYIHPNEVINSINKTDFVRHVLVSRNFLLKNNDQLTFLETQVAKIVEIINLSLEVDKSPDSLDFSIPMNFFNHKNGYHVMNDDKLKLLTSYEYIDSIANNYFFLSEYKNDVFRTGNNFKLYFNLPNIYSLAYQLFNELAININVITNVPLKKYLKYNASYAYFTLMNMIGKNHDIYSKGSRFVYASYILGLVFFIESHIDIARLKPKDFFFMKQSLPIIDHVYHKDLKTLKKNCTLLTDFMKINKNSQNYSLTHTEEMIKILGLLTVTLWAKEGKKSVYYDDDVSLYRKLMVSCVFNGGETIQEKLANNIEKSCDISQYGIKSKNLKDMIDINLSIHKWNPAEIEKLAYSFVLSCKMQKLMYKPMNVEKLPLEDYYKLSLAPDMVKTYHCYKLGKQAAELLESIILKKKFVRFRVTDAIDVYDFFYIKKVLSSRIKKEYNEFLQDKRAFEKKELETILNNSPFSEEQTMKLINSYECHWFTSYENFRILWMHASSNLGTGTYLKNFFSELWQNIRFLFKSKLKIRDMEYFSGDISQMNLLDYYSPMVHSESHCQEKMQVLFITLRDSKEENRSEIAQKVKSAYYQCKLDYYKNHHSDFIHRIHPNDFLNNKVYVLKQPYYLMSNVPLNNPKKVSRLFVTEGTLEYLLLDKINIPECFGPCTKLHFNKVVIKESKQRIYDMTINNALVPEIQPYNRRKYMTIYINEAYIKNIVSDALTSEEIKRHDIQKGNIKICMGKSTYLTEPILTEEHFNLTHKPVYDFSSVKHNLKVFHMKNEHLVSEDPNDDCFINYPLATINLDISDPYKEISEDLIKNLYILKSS


How the values were obtained:
[1] = biological target: T1, high-molecular mass rhoptry protein 3 (PfRhopH3) (P. falciparum (endogenous in NF54 schizonts)); test: affinity purification with mass spectrometry; late schizont lysate (50 mM Tris-HCl, 0.2 M NaCl, 5 mM EDTA, 0.2% NP-40, pH 7.4) passed over a monoclonal antibody-conjugated Formyl-Cellulofine column; eluate on 10% SDS-PAGE, bands excised, trypsin, LC-MS/MS
[2] = biological target: T2, high-molecular mass rhoptry protein 2 (PfRhopH2) (P. falciparum (endogenous in NF54 schizonts)); test: as above

Molecule | binding [1] | binding [2]
Clag3.1 (cytoadherence-linked asexual gene 3.1 protein, PfRhopH1/Clag) (from UniProt O77310 25-1417) | binds | –
Clag9 (cytoadherence-linked asexual gene 9 protein, PfRhopH1/Clag) | binds | binds
high-molecular mass rhoptry protein 3 (PfRhopH3) (protein, UniProt Q8I395 25-897) KDVFAGFVTKKLKTLLDCNFALYYNFKGNGPDAGSFLDFVDEPEQFYWFVEHFLSVKFRVPKHLKDKNIHNFTPCLNRSWVSEFLKEYEEPFVNPVMKFLDKEQRLFFTYNFGDVEPQGKYTYFPVKEFHKYCILPPLIKTNIKDGESGEFLKYQLNKEEYKVFLSSVGSQMTAIKNLYSTVEDEQRKQLLKVIIENESTNDISVQCPTYNIKLHYTKECANSNNILKCIDEFLRKTCEKKTESKHPSADLCEHLQFLFESLKNPYLDNFKKFMTNSDFTLIKPQSVWNVPIFDIYKPKNYLDSVQNLDTECFKKLNSKNLIFLSFHDDIPNNPYYNVELQEIVKLSTYTYSIFDKLYNFFFVFKKSGAPISPVSVKELSHNITDFSFKEDNSEIQCQNVRKSLDLEVDVETMKGIAAEKLCKIIEKFILTKDDASKPEKSDIHRGFRILCILISTHVEAYNIVRQLLNMESMISLTRYTSLYIHKFFKSVTLLKGNFLYKNNKAIRYSRACSKASLHVPSVLYRRNIYIPETFLSLYLGLSNLVSSNPSSPFFEYAIIEFLVTYYNKGSEKFVLYFISIISVLYINEYYYEQLSCFYPKEFELIKSRMIHPNIVDRILKGIDNLMKSTRYDKMRTMYLDFESSDIFSREKVFTALYNFDSFIKTNEQLKKKNLEEISEIPVQLETSNDGIGYRKQDVLYETDKPQTMDEASYEETVDEDAHHVNEKQHSAHFLDAIAEKDILEEKTKDQDLEIELYKYMGPLKEQSKSTSAASTSDEISGSEGPSTESTSTGNQGEDKTTDNTYKEMEELEEAEGTSNLKKGLEFYKSSLKLDQLDKEKPKKKKSKRKKKRDSSSDRILLEESKTFTSENEL | – | binds
